Our source for the binding values is paper PMC4966956, “Analysis of the Bile Salt Export Pump (ABCB11) Interactome Employing Complementary Approaches” (PLoS ONE, 2016).

By UniProt entry, the sequences of proteins in these tests, tags left out.
UniProt O95342: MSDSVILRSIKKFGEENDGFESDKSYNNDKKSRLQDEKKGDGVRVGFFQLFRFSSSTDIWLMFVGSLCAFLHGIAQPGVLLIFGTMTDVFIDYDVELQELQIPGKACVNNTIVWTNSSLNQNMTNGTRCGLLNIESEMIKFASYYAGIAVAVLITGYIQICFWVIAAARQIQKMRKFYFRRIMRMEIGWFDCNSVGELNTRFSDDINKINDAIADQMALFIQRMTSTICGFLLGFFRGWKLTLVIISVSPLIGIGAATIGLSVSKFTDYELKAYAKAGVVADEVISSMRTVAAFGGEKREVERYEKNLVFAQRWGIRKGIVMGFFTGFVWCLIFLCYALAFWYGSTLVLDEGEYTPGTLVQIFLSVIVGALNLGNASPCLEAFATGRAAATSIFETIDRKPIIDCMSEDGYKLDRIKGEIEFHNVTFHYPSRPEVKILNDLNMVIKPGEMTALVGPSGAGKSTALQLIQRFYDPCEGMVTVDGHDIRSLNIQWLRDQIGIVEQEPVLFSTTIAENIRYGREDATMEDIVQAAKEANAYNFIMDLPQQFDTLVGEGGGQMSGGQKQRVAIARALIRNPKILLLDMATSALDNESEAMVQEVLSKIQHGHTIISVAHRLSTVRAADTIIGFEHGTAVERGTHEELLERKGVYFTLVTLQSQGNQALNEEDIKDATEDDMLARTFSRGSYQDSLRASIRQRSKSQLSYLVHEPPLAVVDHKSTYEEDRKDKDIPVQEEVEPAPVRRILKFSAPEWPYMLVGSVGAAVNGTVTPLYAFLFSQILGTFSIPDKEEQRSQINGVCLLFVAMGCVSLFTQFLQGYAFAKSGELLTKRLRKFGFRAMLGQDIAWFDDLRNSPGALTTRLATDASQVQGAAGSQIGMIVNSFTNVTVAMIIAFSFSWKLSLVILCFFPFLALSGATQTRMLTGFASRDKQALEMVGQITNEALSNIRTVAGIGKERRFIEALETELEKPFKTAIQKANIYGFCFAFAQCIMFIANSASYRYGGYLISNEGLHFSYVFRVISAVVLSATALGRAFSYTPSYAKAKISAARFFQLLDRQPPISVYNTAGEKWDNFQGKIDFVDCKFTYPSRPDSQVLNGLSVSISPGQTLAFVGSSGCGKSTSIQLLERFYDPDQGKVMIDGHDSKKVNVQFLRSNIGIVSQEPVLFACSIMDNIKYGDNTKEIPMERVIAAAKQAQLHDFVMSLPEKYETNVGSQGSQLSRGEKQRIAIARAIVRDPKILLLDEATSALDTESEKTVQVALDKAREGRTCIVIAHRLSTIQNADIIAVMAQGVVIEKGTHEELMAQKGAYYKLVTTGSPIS
UniProt O14975: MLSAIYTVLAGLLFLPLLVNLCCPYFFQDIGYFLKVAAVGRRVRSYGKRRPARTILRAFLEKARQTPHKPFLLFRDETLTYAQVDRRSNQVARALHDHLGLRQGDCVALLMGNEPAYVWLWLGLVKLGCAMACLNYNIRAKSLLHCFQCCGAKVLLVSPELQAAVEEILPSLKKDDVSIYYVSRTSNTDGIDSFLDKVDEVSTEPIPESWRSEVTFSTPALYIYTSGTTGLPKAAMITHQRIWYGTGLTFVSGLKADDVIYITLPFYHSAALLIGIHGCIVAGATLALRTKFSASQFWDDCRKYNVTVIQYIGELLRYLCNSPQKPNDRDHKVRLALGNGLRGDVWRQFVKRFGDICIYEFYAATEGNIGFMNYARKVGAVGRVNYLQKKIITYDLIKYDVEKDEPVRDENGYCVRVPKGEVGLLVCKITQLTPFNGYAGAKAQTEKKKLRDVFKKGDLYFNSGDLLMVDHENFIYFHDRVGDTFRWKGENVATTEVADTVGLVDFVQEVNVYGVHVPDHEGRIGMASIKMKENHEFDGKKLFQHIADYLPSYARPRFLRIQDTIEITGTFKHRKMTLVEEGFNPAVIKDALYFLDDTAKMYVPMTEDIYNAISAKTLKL
UniProt Q96HR9: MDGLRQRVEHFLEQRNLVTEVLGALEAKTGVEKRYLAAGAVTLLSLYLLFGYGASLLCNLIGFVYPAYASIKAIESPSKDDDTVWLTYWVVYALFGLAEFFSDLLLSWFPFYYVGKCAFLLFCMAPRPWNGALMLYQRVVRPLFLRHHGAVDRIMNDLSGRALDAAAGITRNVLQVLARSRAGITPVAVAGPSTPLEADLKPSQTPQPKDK
UniProt O14745: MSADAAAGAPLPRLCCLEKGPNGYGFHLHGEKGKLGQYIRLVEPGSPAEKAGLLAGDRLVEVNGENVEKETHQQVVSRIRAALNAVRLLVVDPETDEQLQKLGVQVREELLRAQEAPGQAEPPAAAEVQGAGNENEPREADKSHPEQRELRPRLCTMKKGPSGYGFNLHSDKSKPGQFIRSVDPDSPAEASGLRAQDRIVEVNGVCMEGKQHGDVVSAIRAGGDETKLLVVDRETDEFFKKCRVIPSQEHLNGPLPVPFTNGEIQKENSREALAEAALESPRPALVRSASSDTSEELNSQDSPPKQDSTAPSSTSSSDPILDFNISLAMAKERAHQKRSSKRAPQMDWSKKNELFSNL
UniProt Q6UW68: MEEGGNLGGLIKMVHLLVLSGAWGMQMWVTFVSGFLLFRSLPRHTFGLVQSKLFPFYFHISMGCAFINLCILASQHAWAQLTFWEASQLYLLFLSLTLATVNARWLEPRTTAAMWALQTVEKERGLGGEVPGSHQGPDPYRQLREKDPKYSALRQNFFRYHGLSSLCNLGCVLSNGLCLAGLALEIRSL

Results are given in words; binding and its absence hold for the method and conditions named. In cells and extracts the contact can be indirect. A yes stands for co-enrichment or nearness to the bait. Other partners may have been found. A no says only that the protein was not detected with the bait.

The chains are these.
B1: bile acyl-CoA synthetase, endogenous in human liver (enzyme, UniProt Q9Y2P5-1 1-690)
chain: MGVRQQLALLLLLLLLLWGLGQPVWPVAVALTLRWLLGDPTCCVLLGLAMLARPWLGPWVPHGLSLAAAALALTLLPARLPPGLRWLPADVIFLAKILHLGLKIRGCLSRQPPDTFVDAFERRARAQPGRALLVWTGPGAGSVTFGELDARACQAAWALKAELGDPASLCAGEPTALLVLASQAVPALCMWLGLAKLGCPTAWINPHGRGMPLAHSVLSSGARVLVVDPDLRESLEEILPKLQAENIRCFYLSHTSPTPGVGALGAALDAAPSHPVPADLRAGITWRSPALFIYTSGTTGLPKPAILTHERVLQMSKMLSLSGATADDVVYTVLPLYHVMGLVVGILGCLDLGATCVLAPKFSTSCFWDDCRQHGVTVILYVGELLRYLCNIPQQPEDRTHTVRLAMGNGLRADVWETFQQRFGPIRIWEVYGSTEGNMGLVNYVGRCGALGKMSCLLRMLSPFELVQFDMEAAEPVRDNQGFCIPVGLGEPGLLLTKVVSQQPFVGYRGPRELSERKLVRNVRQSGDVYYNTGDVLAMDREGFLYFRDRLGDTFRWKGENVSTHEVEGVLSQVDFLQQVNVYGVCVPGCEGKVGMAAVQLAPGQTFDGEKLYQHVRAWLPAYATPHFIRIQDAMEVTSTFKLMKTRLVREGFNVGIVVDPLFVLDNRAQSFRPLTAEMYQAVCEGTWRL
B2: B-cell receptor-associated protein 31, endogenous in human liver (protein, UniProt P51572-1 1-246)
chain: MSLQWTAVATFLYAEVFVVLLLCIPFISPKRWQKIFKSRLVELLVSYGNTFFVVLIVILVLLVIDAVREIRKYDDVTEKVNLQNNPGAMEHFHMKLFRAQRNLYIAGFSLLLSFLLRRLVTLISQQATLLASNEAFKKQAESASEAAKKYMEENDQLKKGAAVDGGKLDVGNAEVKLEEENRSLKADLQKLKDELASTKQKLEKAENQVLAMRKQSEGLTKEYDRLLEEHAKLQAAVDGPMDKKEE
B3: immediate early response 3 interacting protein 1, endogenous in human liver (protein, UniProt Q9Y5U9 1-82)
chain: MAFTLYSLLQAALLCVNAIAVLHEERFLKNIGWGTDQGIGGFGEEPGIKSQLMNLIRSVRTVMRVPLIIVNSIAIVLLLLFG
B4: retention in endoplasmic reticulum 1, endogenous in human liver (protein, UniProt O15258 1-196)
chain: MSEGDSVGESVHGKPSVVYRFFTRLGQIYQSWLDKSTPYTAVRWVVTLGLSFVYMIRVYLLQGWYIVTYALGIYHLNLFIAFLSPKVDPSLMEDSDDGPSLPTKQNEEFRPFIRRLPEFKFWHAATKGILVAMVCTFFDAFNVPVFWPILVMYFIMLFCITMKRQIKHMIKYRYIPFTHGKRRYRGKEDAGKAFAS
B5: signal sequence receptor, gamma (translocon-associated protein gamma), endogenous in human liver (protein, UniProt Q9UNL2-1 1-185)
chain: MAPKGSSKQQSEEDLLLQDFSRNLSAKSSALFFGNAFIVSAIPIWLYWRIWHMDLIQSAVLYSVMTLVSTYLVAFAYKNVKFVLKHKVAQKREDAVSKEVTRKLSEADNRKMSRKEKDERILWKKNEVADYEATTFSIFYNNTLFLVVVIVASFFILKNFNPTVNYILSISASSGLIALLSTGSK
B6: translocon associated protein (TRAP) alpha subunit, endogenous in human liver (protein, UniProt P43307 19-286)
chain: VLFRGGPRGLLAVAQDLTEDEETVEDSIIEDEDDEAEVEEDEPTDLVEDKEEEDVSGEPEASPSADTTILFVKGEDFPANNIVKFLVGFTNKGTEDFIVESLDASFRYPQDYQFYIQNFTALPLNTVVPPQRQATFEYSFIPAEPMGGRPFGLVINLNYKDLNGNVFQDAVFNQTVTVIEREDGLDGETIFMYMFLAGLGLLVIVGLHQLLESRKRKRPIQKVEMGTSSQNDVDMSWIPQETLNQINKASPRRLPRKRAQKRSVGSDE
B7: transmembrane protein 14A, endogenous in human liver (protein, UniProt Q9Y6G1 1-99)
chain: MDLIGFGYAALVTFGSIFGYKRRGGVPSLIAGLFVGCLAGYGAYRVSNDKRDVKVSLFTAFFLATIMGVRFKRSKKIMPAGLVAGLSLMMILRLVLLLL

The first test has as its target bile salt export pump (BSEP, ABCB11), endogenous in human liver (human (endogenous in human liver)) (UniProt O95342). Description: affinity purification with mass spectrometry; BSEP immunoprecipitated with monoclonal antibody F-6 from crude canalicular membranes of human liver solubilised in 1% digitonin; shotgun MS/MS; control naive mouse IgG2a.
On to B1, for which the binding result is “no binding (only solubilised with digitonin)”.

For the next test the target is unchanged. The test is described as follows: affinity purification with mass spectrometry; BSEP immunoprecipitated with monoclonal antibody F-6 from crude canalicular membranes of human liver solubilised in 1% Triton X-100; shotgun MS/MS; control naive mouse IgG2a.
Take “very long-chain acyl-CoA synthetase, endogenous in human liver (from UniProt O14975 1-620) (enzyme)”: the binding entry is on record as “binds”.

On to “receptor expression-enhancing protein 6, endogenous in human liver (from UniProt Q96HR9 1-211)”, for which the binding entry was “binds”. Still for that read-out and setting: in the case of “NHERF1, endogenous in human liver (from UniProt O14745 1-358)” it was “no binding”.

“translocation associated membrane protein 1, endogenous in human liver (from UniProt Q15629-1 1-374)”: the binding result is on record as “binds”. Still for that read-out and setting: in the case of “transmembrane protein 205, endogenous in human liver (from UniProt Q6UW68 1-189)” it was “binds”; in that of B2, “binds”. The same measure, in the same setting: next, B1: “binds”. B3: the binding result is “binds”.

Regarding B4, the binding result is on record as “binds”. Same read-out and setting: in the case of B5 it was “binds”; in that of B6, “binds”.

For the molecule B7, the binding entry was “binds”.

The next test has the same target. The test is described as follows: affinity purification with mass spectrometry; BSEP immunoprecipitated with monoclonal antibody F-6 from crude canalicular membranes of human liver solubilised in 1% digitonin; shotgun MS/MS; control naive mouse IgG2a. This is another data set of the same source.
As to “NHERF1, endogenous in human liver (from UniProt O14745 1-358)”, the binding entry is “no binding”.
